In PubChem BioAssay AID504467 (National Center for Advancing Translational Sciences (NCATS), 2011):
In all, about 330,000 compounds went through this assay and about 7,700 (2.3%) were called active. Inconclusive results, whose numbers are uncertain, are shown with a selection of clear calls. The call rests on the fitted dose curve; in most records, active means well fitted inhibition curve with a large enough effect; inconclusive means small, poorly fitted or top-dose-only effect, or effect the other way; inactive means flat fitted curve, though single readings scatter. Potencies of inconclusive entries are doubtful fits and often do not repeat.

Assay: qHTS screen for small molecules that inhibit ELG1-dependent DNA repair in human embryonic kidney (HEK293T) cells expressing luciferase-tagged ELG1; further: nearly all actives have a fitted effect of over 55% in size
Settings: HEK293T ELG1-luciferase reporter, luminescence, 16 h, DNA damage induced by 5-fluorouridine; activity change, negative = inhibition: at 46.1 µM (top of the series)
Procedure, shortened: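 DMSO vehicle served as the neutral condition. Each well held 2,000 cells given 5-fluorouridine plus compound; after 16 hr at 37 °C/5% CO2, ONE-Glo was added and luciferase measured 30 min later.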
On the % scale 0 is the no-effect control and ±100 the full control effect; potency means the concentration at half of the fitted maximal effect.

Structure (SMILES)	activity change, negative = inhibition	Potency
O=C(CSc1nnc(CNC(=O)c2c(F)cccc2F)o1)c1ccccc1	inactive: 5.95%	
Cc1cc(NC(=O)C(C)SCC(=O)Nc2ccc(Br)cc2Br)no1 (stereo not given)	inactive: -11.2%	
Cn1nc(C(=O)OCC(=O)Nc2ccc3ccccc3c2)c2ccccc2c1=O		inconclusive: 32.6 µM [activator, partial curve, poor fit]
COc1ccc(N2CCN(C(=O)C3CCC(Cn4c(=S)[nH]c5ccccc5c4=O)CC3)CC2)cc1 (stereo not given)		inconclusive: 14.6 µM [inhibitor, partial curve, poor fit]
Nc1c(S(=O)(=O)c2ccccc2)cnc2c(-c3ccc(F)cc3)cnn12		inconclusive: 2.06 µM [activator, partial curve, poor fit]
CN(C)/C=N/c1cnc(C(=O)c2ccc(Cl)cc2)n1C		inconclusive: 3.66 µM [activator, partial curve]
O=C(Nc1cccc(C(=O)N2CCCc3ccccc32)c1)c1ccccc1	inactive: -30.3%	
CC(C)c1cc(C(=O)N/N=C/c2ccco2)n[nH]1		inconclusive: 11.6 µM [activator, partial curve]
CN(C)C(=O)c1ccc(NC(=O)CSc2nnc(-c3ccc4c(c3)OCO4)o2)cc1	inactive: 17.2%	
Cc1cc(C)cc(-n2c(C)cc(/C=N/NC(=O)CN(c3c(C)cccc3C)S(C)(=O)=O)c2C)c1	inactive: -3.25%	
CCn1nnc(NC(=O)c2ccc(-c3ccccc3[N+](=O)[O-])o2)n1		inconclusive: 23.1 µM [activator, partial curve]
CCc1ccc(S(=O)(=O)NCCOc2cccc3cccnc23)cc1	inactive: -23%	
COc1ccc(-c2cc(C(=O)N3CC(C)CC(C)C3)c3ccccc3n2)cc1OC (stereo not given)		inconclusive: 16.4 µM [inhibitor, single point]
CCC1Oc2ccccc2N(CC(=O)Nc2ccc3c(c2)OCCO3)C1=O (stereo not given)		inconclusive: 18.4 µM [activator, single point]
Cc1ccccc1C(=O)NC(C)C(c1cccs1)N1CCOCC1 (stereo not given)		inconclusive: 32.6 µM [activator, single point]
Cc1csc(Nc2ccccc2)n1		inconclusive: 20.6 µM [activator, partial curve]
COc1ccc(C2C(C(=O)N3CCN(c4ccccc4F)CC3)c3ccccc3C(=O)N2C)cc1 (stereo not given)		inconclusive: 14.1 µM [inhibitor, single point]
COc1ccc(S(=O)(=O)Nc2ccccc2N2CCOCC2)cc1OC	inactive: -2.39%	
CCSc1nnc(-c2cc3c(s2)-c2ccccc2CC3)o1		inconclusive: 11.6 µM [activator, partial curve]
CC(=O)c1cc(Cc2csc(C(C)=O)c2)cs1		inconclusive: 29.1 µM [activator, single point]
CC(C)(C)OC(=O)c1c(N)n(CCCN2CCCC2=O)c2nc3ccccc3nc12		inconclusive: 23.1 µM [inhibitor, partial curve]
Cc1occc1C(=O)Nc1nn[nH]n1		inconclusive: 20.6 µM [activator, partial curve, poor fit]
Cc1cc(C(=O)Nc2sc3c(c2C#N)CCCCC3)cs1		inconclusive: 1.16 µM [activator, full curve]
Nn1c(-c2ccc(F)cc2)nc2ccccc2c1=O	inactive: -17.4%	

Structure (SMILES)	activity change, negative = inhibition	Potency
CN(C)Cc1nc2ccccc2c(=O)n1Cc1nc(-c2cc3ccccc3o2)cs1		inconclusive: 9.2 µM [inhibitor, single point]
Cc1ccc(NC(=O)N[C@H](C(=O)O)C(C)C)c(C)c1	inactive: 0%	
CN(C)c1ccc(/C=N/NC(=O)CN(c2cccc(Cl)c2)S(C)(=O)=O)cc1Br		active: 20.6 µM
Cc1ccc(-n2ccnc2SCC(=O)N(CC(C)C)C2CCS(=O)(=O)C2)c(C)c1 (stereo not given)	inactive: 3.04%	
CC(=O)N(C)c1ccc(NC(=O)/C=C/c2ccccc2Cl)cc1		inconclusive: 25.9 µM [activator, single point]
COc1ccc(CCNS(=O)(=O)c2ccc(-c3ccc(=O)[nH]n3)o2)cc1OC	inactive: 1.17%	
CC1(C2(O)CCCCC2)NCCc2ccccc21 (stereo not given)	inactive: 13.1%	
COc1ccc(-c2cc(C(=O)Nc3sc4c(c3C#N)CCCC4)c3ccccc3n2)cc1OC		inconclusive: 15.8 µM [inhibitor, single point]
O=C(N[C@H]1CCC(=O)N([C@H](CSc2ccc(Br)cc2)Cc2ccccc2)CC1)OCc1ccccc1	inactive: 0.28%	
O=C(CCSc1ccc(Cl)cc1)NCc1ccncc1	inactive: 11.5%	
COc1ccc(C(CNC(=O)c2ccc(Cl)s2)N2CCOCC2)cc1 (stereo not given)	inactive: 0.98%	
Cc1ccc(NC2CCCN(C(=O)CCN3CCCCO3)C2)cc1C (stereo not given)	inactive: 1.71%	
CCCCn1c2nc3ccccc3nc2c2c(=N)oc(C)nc21		inconclusive: 18.4 µM [inhibitor, single point]
CCOC(=O)c1ccccc1NC(=O)c1cn(CC)c2nc(C)ccc2c1=O		inconclusive: 0.58 µM [activator, partial curve]
Cc1ccc(C)c2c1cc(C)c1nnc(SCC(=O)N3CCCc4ccccc43)n12		inconclusive: 29.1 µM [inhibitor, single point]
Cn1c(=O)n(Cc2ccccc2Br)c2ccccc21	inactive: 14.6%	
COc1cccc(COc2ccc3c(C)cc(=O)oc3c2)c1		inconclusive: 6.51 µM [activator, partial curve]
COC(=O)/C(=C/c1c[nH]c2ccccc12)[N+](=O)[O-]		inconclusive: 25.9 µM [activator, single point]
Cc1c(C(=O)N2CCCCCC2)c(S(=O)(=O)Nc2ccc(F)cc2)c(C)n1C		inconclusive: 16.4 µM [activator, partial curve, poor fit]
CN(CC(=O)Nc1cccc(S(=O)(=O)N2CCCCC2)c1)Cc1ccc(F)cc1		inconclusive: 20.6 µM [inhibitor, single point]
COc1ccc(OC)c(S(=O)(=O)N2CCC(NC(=O)c3ccccc3)CC2)c1		inconclusive: 13 µM [inhibitor, partial curve, poor fit]
OC(COc1cc(Cl)c(Cl)cc1Cl)CN1CCN(c2ncccn2)CC1 (stereo not given)		inconclusive: 20.6 µM [inhibitor, single point]
O=C(CCN1C(=O)/C(=C\c2ccc(F)cc2)SC1=S)Nc1ccc(O)cc1	inactive: -0.0677%	
O=C(COc1ccc(Cl)cc1)Nc1cccc(-c2ccc3nncn3n2)c1	inactive: 10.1%	

Structure (SMILES)	activity change, negative = inhibition	Potency
CCN(Cc1ccccc1)S(=O)(=O)c1ccc(S(=O)(=O)N2CCN(C)CC2)cc1	inactive: 1%	
COc1cc(/C=N/NC(=O)c2ccc(CN3C(=O)c4cccc5cccc3c45)cc2)cc(OC)c1O		inconclusive: 16.4 µM [inhibitor, single point]
CCC1=NN=C(c2ccc(F)cc2)C(c2c[nH]c3ccccc23)N1O (stereo not given)		inconclusive: 14.6 µM [activator, partial curve]
Cc1ccc2nc(N(CCCN(C)C)C(=O)c3cc4ccccc4oc3=O)sc2c1		inconclusive: 20.6 µM [activator, single point]
Cc1cc(NC(=O)CCCSc2nc(-c3ccco3)cc(C(F)(F)F)n2)no1		inconclusive: 29.1 µM [activator, single point]
CCOc1cc(/C=N/O)ccc1OCc1ccc(C)cc1		inconclusive: 20.6 µM [activator, partial curve]
O=C(CSc1ccc(-c2ccc(-n3cccn3)cc2)nn1)Nc1ccccc1F		inconclusive: 2.82 µM [activator, partial curve, poor fit]
Clc1ccc(-c2nnc(CCc3ccccc3)o2)c(Cl)c1		inconclusive: 16.4 µM [activator, partial curve]
O=C(Nc1nc(-c2ccccc2)ns1)c1ccncc1	inactive: 26.6%	
CCOC(=O)N1CCN(C2=C(NS(=O)(=O)c3ccc(C)cc3)C(=O)c3ccccc3C2=O)CC1		inconclusive: 29.1 µM [inhibitor, single point]
Cc1ccc(C)n1-n1c(C)nc2scc(-c3ccccc3)c2c1=O		inconclusive: 20.6 µM [activator, single point]
CCOC(=O)C(C)Sc1nc2c(c(-c3cccs3)c1C#N)CCC2 (stereo not given)	inactive: -14.2%	
O=C1NC[C@H](c2ccccc2)OC(=O)[C@H](Cc2ccc(F)cc2)CC/C=C/C[C@@H]1CC(=O)N(CCO)Cc1ccccc1		active: 11.6 µM
CC(=O)c1sc(-c2ccc(F)cc2F)nc1C		inconclusive: 23.1 µM [activator, partial curve]
Clc1ccc(-c2nc3ccccc3[nH]2)cn1		inconclusive: 20.6 µM [activator, partial curve]
c1ccc2oc(-c3ccn[nH]3)cc2c1		inconclusive: 13 µM [activator, partial curve]
Cc1ccccc1NC(=O)Cc1nc(COC(=O)c2cc([N+](=O)[O-])ccc2NCCO)cs1		inconclusive: 4.61 µM [inhibitor, single point]
Cc1cs/c(=N\N=C\c2ccc(O)cc2)n1Cc1ccco1		inconclusive: 18.4 µM [activator, single point]
Brc1ccc(-c2csc(NNC3=NCCCCC3)n2)cc1	inactive: 21.5%	
O=C(CSc1ncccn1)NCc1ccc2c(c1)OCO2		inconclusive: 20.6 µM [activator, single point]
CCC(c1nnnn1C1CCCC1)N1CCN(c2ccccc2F)CC1 (stereo not given)		inconclusive: 1.16 µM [inhibitor, single point]
COc1ccc(N2CCN(C(=O)C(=O)c3cn(CC(=O)N4CCCCCC4)c4ccccc34)CC2)cc1		inconclusive: 32.6 µM [inhibitor, single point]

A different layout for four compounds above:
Structure (SMILES) | activity change, negative = inhibition | Potency
Cc1cc(C)cc(-n2c(C)cc(/C=N/NC(=O)CN(c3c(C)cccc3C)S(C)(=O)=O)c2C)c1 | inactive: -3.25% | 
CCn1nnc(NC(=O)c2ccc(-c3ccccc3[N+](=O)[O-])o2)n1 |  | inconclusive: 23.1 µM [activator, partial curve]
CCc1ccc(S(=O)(=O)NCCOc2cccc3cccnc23)cc1 | inactive: -23% | 
COc1ccc(-c2cc(C(=O)N3CC(C)CC(C)C3)c3ccccc3n2)cc1OC (stereo not given) |  | inconclusive: 16.4 µM [inhibitor, single point]
